PubChem BioAssay AID1259405 | NCATS – 2018
Aim: 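Mouse-designed siRNAs used to find CHO productivity engineering targets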 (primary screen). Cells: Chinese hamster CHO-K1 ovary cells with stable secreted eGFP expression. Reagents: single siRNA against mouse genes, 0.8 pmol siRNA per well (2 µl of 400 nM stock). Timing: 3 days. Read-out: 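Per-well intracellular GFP measured by laser scanning cytometry, plus viability from ATP luminescence, each relative to plate median of non-targeting control wells, in %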. Reading the numbers: GFP, % of control: higher = more GFP per well, higher productivity; viability (ATP), % of control: higher = more viable cells (more ATP). Rule for the call: 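Called active when intracellular GFP, relative to negative control, is at or above 120%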.
Shown is a random part of about 50,000 reagents tested. Of all reagents, about 4,000 (8%) were called active. 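Mouse siRNA library applied to hamster cells; one well for each siRNA.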 Reagents against one gene are numbered here.

For Cabyr #1, what was measured?
GFP, % of control: 95.2; viability (ATP), % of control: 59.1; Outcome: inactive

For Cabyr #2, what does the deposit list?
GFP, % of control: 81.3; viability (ATP), % of control: 83.6; Outcome: inactive

Which result is listed for Cabyr #3?
GFP, % of control: 119; viability (ATP), % of control: 111; Outcome: inactive

With Pkd1l3 #1, how do the results read?
GFP, % of control: 114; viability (ATP), % of control: 86.8; Outcome: inactive

With Pkd1l3 #2, how do the results read?
GFP, % of control: 107; viability (ATP), % of control: 75.6; Outcome: inactive

How did the screen score Pkd1l3 #3?
GFP, % of control: 82.3; viability (ATP), % of control: 77.3; Outcome: inactive

Records listed so far whose gene name begins with P or p:
Pkd1l3 #1 | GFP, % of control = 114; viability (ATP), % of control = 86.8; Outcome = inactive
Pkd1l3 #2 | GFP, % of control = 107; viability (ATP), % of control = 75.6; Outcome = inactive
Pkd1l3 #3 | GFP, % of control = 82.3; viability (ATP), % of control = 77.3; Outcome = inactive

Next reagents follow.
What did the screen give for Etd #1?
GFP, % of control: 62.6; viability (ATP), % of control: 80; Outcome: inactive

What did the screen give for Etd #2?
GFP, % of control: 40.5; viability (ATP), % of control: 47; Outcome: inactive

With Etd #3, what was measured?
GFP, % of control: 32.9; viability (ATP), % of control: 25.3; Outcome: inactive

How did the screen score H2-D4 #1?
GFP, % of control: 57.5; viability (ATP), % of control: 75.6; Outcome: inactive

Which result is listed for H2-D4 #2?
GFP, % of control: 89.6; viability (ATP), % of control: 60.9; Outcome: inactive

For H2-D4 #3, what does the deposit list?
GFP, % of control: 25.5; viability (ATP), % of control: 19.2; Outcome: inactive

For Wdr18 #1, how do the results read?
GFP, % of control: 69.4; viability (ATP), % of control: 53.8; Outcome: inactive

Which result is listed for Wdr18 #2?
GFP, % of control: 158; viability (ATP), % of control: 62.6; Outcome: active

With Wdr18 #3, how do the results read?
GFP, % of control: 79.8; viability (ATP), % of control: 75.9; Outcome: inactive

With Vps36 #1, what was measured?
GFP, % of control: 55; viability (ATP), % of control: 48.6; Outcome: inactive

Which result is listed for Vps36 #2?
GFP, % of control: 97.9; viability (ATP), % of control: 71.5; Outcome: inactive

What did the screen give for Vps36 #3?
GFP, % of control: 49.5; viability (ATP), % of control: 60.3; Outcome: inactive
